These are yes or no findings as the source states them, for the method shown.

Protein sequences, listed by entry. Tags and fused reporters are not part of them.
UniProt P03129: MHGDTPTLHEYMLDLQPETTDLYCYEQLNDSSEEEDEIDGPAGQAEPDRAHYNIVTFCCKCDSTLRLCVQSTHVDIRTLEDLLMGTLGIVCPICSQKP
UniProt Q8N726: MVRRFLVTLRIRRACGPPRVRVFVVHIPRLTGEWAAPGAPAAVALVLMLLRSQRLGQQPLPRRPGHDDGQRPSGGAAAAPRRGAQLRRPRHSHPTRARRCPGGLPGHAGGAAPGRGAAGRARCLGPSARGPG

These results are taken from article PMC4010441.

This experiment addresses GST-E7 fusion protein (HPV16 E7) (HPV16) (UniProt P03129). Kind of experiment: pull-down; direct binding assay: soluble, purified p14ARF incubated with GST-E7 or GST alone immobilized on glutathione resin; western blot for p14ARF; both purified.

Turning to “Soluble, purified p14^ARF (from bacteria) (from UniProt Q8N726 1-132)”, the binding entry was “no binding”.
